{"source": "PubChem BioAssay AID1671195, Yale University, 2021", "assay": "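Knockdowns that increase or decrease uptake of fluorescent LDL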 (primary screen)", "cell system": "human Huh7 hepatoma cells", "knock-down reagent": "siRNA pool against human genes, 18 nM", "time to read-out": "about 2 to 2.5 days of knockdown, then 8 h LDL uptake", "treatment": "DiI-labelled LDL at 30 µg/ml for 8 h, in lipoprotein-deficient serum medium", "read-out": "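Fluorescent LDL signal imaged in cells, scaled to the plate median, robust z-score for each replicate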", "scale": "robust z-score: higher = more LDL uptake after knockdown", "rule for the call": "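Active when two or more replicates show a robust z-score above 2 or below -2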", "note": "The deposit covers about 22,000 reagents; this is a random part of them. In the full data, about 1,510 (6.9%) were called active. 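Active includes knockdowns raising or lowering LDL uptake; positive z-scores mean more uptake, negative mean less.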 A number with no mark means an inactive call. The numbers tell different reagents against one gene apart."}
{"gene symbol": "SLC15A1", "pool no.": 1, "robust z-score, replicate 1": -1.12, "robust z-score, replicate 2": -1.17, "robust z-score, replicate 3": -1.31}
{"gene symbol": "ACSS1", "pool no.": 1, "robust z-score, replicate 1": -0.151, "robust z-score, replicate 2": -0.121, "robust z-score, replicate 3": 0.0411}
{"gene symbol": "C22orf15", "pool no.": 1, "robust z-score, replicate 1": -0.968, "robust z-score, replicate 2": -0.629, "robust z-score, replicate 3": -1.56}
{"gene symbol": "TAF9B", "pool no.": 1, "robust z-score, replicate 1": -0.658, "robust z-score, replicate 2": -0.994, "robust z-score, replicate 3": -0.812}
{"gene symbol": "OR2J2", "pool no.": 1, "robust z-score, replicate 1": 0.686, "robust z-score, replicate 2": 0.0164, "robust z-score, replicate 3": 0.0397}
{"gene symbol": "PDPK2P", "pool no.": 1, "robust z-score, replicate 1": 0.0668, "robust z-score, replicate 2": 0.571, "robust z-score, replicate 3": 0.109}
{"gene symbol": "ATP11AUN", "pool no.": 1, "robust z-score, replicate 1": 0.371, "robust z-score, replicate 2": 0.903, "robust z-score, replicate 3": 0.196}
{"gene symbol": "CAPN9", "pool no.": 1, "robust z-score, replicate 1": -1.84, "robust z-score, replicate 2": -1.17, "robust z-score, replicate 3": -1.26}
{"gene symbol": "GABRE", "pool no.": 1, "robust z-score, replicate 1": 0.966, "robust z-score, replicate 2": 1.02, "robust z-score, replicate 3": 0.813}
{"gene symbol": "RPAP1", "pool no.": 1, "robust z-score, replicate 1": 0.407, "robust z-score, replicate 2": 0.551, "robust z-score, replicate 3": 0.212}
{"gene symbol": "CSTF2", "pool no.": 1, "robust z-score, replicate 1": -0.0813, "robust z-score, replicate 2": -0.214, "robust z-score, replicate 3": 0.42}
{"gene symbol": "RAB35", "pool no.": 1, "robust z-score, replicate 1": -1.24, "robust z-score, replicate 2": -1.26, "robust z-score, replicate 3": -1.34}
{"gene symbol": "PLCZ1", "pool no.": 1, "robust z-score, replicate 1": -1.46, "robust z-score, replicate 2": -1.06, "robust z-score, replicate 3": -2.36}
{"gene symbol": "ZNF667", "pool no.": 1, "robust z-score, replicate 1": -0.19, "robust z-score, replicate 2": -0.123, "robust z-score, replicate 3": -0.38}
{"gene symbol": "FRG2", "pool no.": 1, "robust z-score, replicate 1": 0.758, "robust z-score, replicate 2": 1.17, "robust z-score, replicate 3": 1.13}

Entries above whose target name starts with A or a:
{"gene symbol": "ACSS1", "pool no.": 1, "robust z-score, replicate 1": -0.151, "robust z-score, replicate 2": -0.121, "robust z-score, replicate 3": 0.0411}
{"gene symbol": "ATP11AUN", "pool no.": 1, "robust z-score, replicate 1": 0.371, "robust z-score, replicate 2": 0.903, "robust z-score, replicate 3": 0.196}

The results go on.
{"gene symbol": "ZSWIM1", "pool no.": 1, "robust z-score, replicate 1": -1.13, "robust z-score, replicate 2": -1.11, "robust z-score, replicate 3": -1.24}
{"gene symbol": "GJD3", "pool no.": 1, "robust z-score, replicate 1": -0.687, "robust z-score, replicate 2": -0.501, "robust z-score, replicate 3": -0.327}
{"gene symbol": "TMEM50A", "pool no.": 1, "robust z-score, replicate 1": -0.199, "robust z-score, replicate 2": 0.927, "robust z-score, replicate 3": -1.79}
{"gene symbol": "LOC441840 (retired record)", "pool no.": 1, "robust z-score, replicate 1": -1.27, "robust z-score, replicate 2": -1.37, "robust z-score, replicate 3": -1.2}
{"gene symbol": "C8B", "pool no.": 1, "robust z-score, replicate 1": -0.259, "robust z-score, replicate 2": -0.649, "robust z-score, replicate 3": 0.706}
{"gene symbol": "TCAIM", "pool no.": 1, "robust z-score, replicate 1": -1.24, "robust z-score, replicate 2": -1.19, "robust z-score, replicate 3": -1.14}
{"gene symbol": "LINC02210", "pool no.": 1, "robust z-score, replicate 1": 0.68, "robust z-score, replicate 2": 0.641, "robust z-score, replicate 3": 0.234}
{"gene symbol": "LINC02210", "pool no.": 2, "robust z-score, replicate 1": 0.601, "robust z-score, replicate 2": -0.447, "robust z-score, replicate 3": 0.676}
{"gene symbol": "CYP26B1", "pool no.": 1, "robust z-score, replicate 1": -1.65, "robust z-score, replicate 2": -1.81, "robust z-score, replicate 3": -1.89}
{"gene symbol": "GRHL3", "pool no.": 1, "robust z-score, replicate 1": -0.118, "robust z-score, replicate 2": -1.01, "robust z-score, replicate 3": -0.206}
{"gene symbol": "CTF1", "pool no.": 1, "robust z-score, replicate 1": -0.77, "robust z-score, replicate 2": 0.134, "robust z-score, replicate 3": -0.469}
{"gene symbol": "CLN8", "pool no.": 1, "robust z-score, replicate 1": -1.09, "robust z-score, replicate 2": -0.357, "robust z-score, replicate 3": -0.354}
{"gene symbol": "CLN8", "pool no.": 2, "robust z-score, replicate 1": -1.53, "robust z-score, replicate 2": -0.891, "robust z-score, replicate 3": -1.09}
{"gene symbol": "LINC00173", "pool no.": 1, "robust z-score, replicate 1": 1.42, "robust z-score, replicate 2": 0.689, "robust z-score, replicate 3": 1.12}
{"gene symbol": "LOC392563 (retired record)", "pool no.": 1, "robust z-score, replicate 1": -0.0792, "robust z-score, replicate 2": 1.13, "robust z-score, replicate 3": 0.432}
